US20170080049A1, “MEDICINE AGAINST GROWTH FAILURE INDUCED BY ADMINISTRATION OF STEROID” (DAIICHI SANKYO COMPANY, LIMITED, priority 2014, published 2017)
At least one peptide structure holds a part that was inferred or is arguable (an end, a ring closure or a residue). Positions of bridges follow the written chain, without caps; N, C: chain ends. Residues, ends and D or L forms follow the SMILES beside them.

Assays:
Type in all cases: in vivo
[1] = test system: rat growth failure induced by dexamethasone; experiment: Action comparing study between CNP derivative (A) and human growth hormone on rat growth failure induced by dexamethasone (Example 6)
Method: Osmotic pumps (MINI-OSMOTIC PUMP Model 2004, available from DURECT CORPORATION, flow rate: 0.25 μL/hr, for 28 days) were charged with a 0.67 mg/mL solution of dexamethasone (dexamethasone injection “KS”, available from Kyoritsuseiyaku Corporation), and one osmotic pump was embedded in the hypoderm of the back of each 4-week-old male Crlj:WI (Wistar) rat (5 animals/group, Group 2 to Group 4, total of 15 animals). For Group 3, a 1 mg/mL solution of CNP derivative (A) (medium: 0.03 mol/L acetate buffer (pH 4.0)/1% benzyl alcohol/10% sucrose), and for Group 4, a 1 mg/mL solution of human-type growth hormone preparation (somatropin BS subcutaneous injection 10 mg “SANDOZ”) diluted with a phosphate buffer was administered to the hypoderm of the back of five rats, respectively, in a volume of 2 mL/kg once a day for 28 days. No substance was administered to the normal control group (5 animals, Group 1). On the final day, after measuring the body weight, the body length and the tail length, the blood was collected from the abdominal aorta and the animal was caused to die under isoflurane anesthesia, the left femur was extracted and the bone length was measured, and then a histopathological specimen of the epiphyseal region was prepared.

[2] = test system: dexamethasone-induced growth failure, male Crlj:WI (Wistar) rat
Method: Osmotic pumps (MINI-OSMOTIC PUMP Model 2004, available from DURECT CORPORATION, flow rate: 0.25 μL/hr, for 28 days) were charged with a 1 mg/mL solution of dexamethasone (dexamethasone injection “KS”, available from Kyoritsuseiyaku Corporation, Group 2 and Group 3) or saline in a control group (Group 1), and one osmotic pump was embedded in the hypoderm of the back of each 7-week-old male Crlj:WI (Wistar) rat. At the same time, one osmotic pump (the same as described above) charged with a 20 mg/mL solution of CNP derivative (A) in Group 3, or charged with Medium 1 (0.03 mol/L acetate buffer (pH 4.0)/1% benzyl alcohol/10% sucrose) in Group 1 and Group 2 was embedded in the hypoderm of the back simultaneously with the pump containing dexamethasone or saline. Then the animals were fed for 28 days, and the body weight, the body length (length from the top of the nose to the anus) and the tail length were measured on the final day, and after collecting the blood from the abdominal aorta under isoflurane anesthesia, the right femur and major organs (spleen, thymus, liver, heart and lung) were collected. Regarding the femur, the bone length and width were measured by using a caliper, and the organ weights were measured. Concentrations of cholesterol and IGF-1 in plasma prepared from the blood, were determined by using cholesterol E-Test Wako (available from Wako Pure Chemical Industries, Ltd.) and Quantikine® ELISA Mouse/Rat IGF-I Immunoassay (MG100, available from R&D Systems). [Result]

[3] = test system: steroid-induced growth failure, male Crlj:WI (Wistar) rat; experiment: Simultaneous combined administration test of various steroids and CNP derivative (A) in rats (Example 5); conditions: 1 mL/kg s.c. once a day 28 days, n=5; for Body weight at dissection: 4-week-old male Wistar rat
Method: 0.3 mg/mL solution of dexamethasone (dexamethasone injection “KS”, available from Kyoritsuseiyaku Corporation diluted with saline), prednisolone succinate suspended in 0.1% polysorbate-containing brine (available from Wako Pure Chemical Industries, Ltd., concentration of 5 mg/mL as prednisolone), or betamethasone dipropionate suspended in 0.1% polysorbate-containing brine (available from Wako Pure Chemical Industries, Ltd., concentration of 0.3 mg/mL as betamethasone) was administered to the hypoderm of the back of a 4-week-old male Crlj:WI (Wistar) rat (ten animals for each set of substances) in a volume of 1 mL/kg once a day for 28 days. No substance was administered to the control group (5 animals, Group 1). At the same time, for five of ten animals in each set (Group 2, Group 4, Group 6) a medium (0.03 mol/L acetate buffer (pH 4.0)/1% benzyl alcohol/10% sucrose) and for the remaining five animals (Group 3, Group 5, Group 7) the medium and a 1 mg/mL solution of CNP derivative (A) were administered in combination in the hypoderm of the back in a volume of 1 mL/kg once a day for 28 days. After measuring the body weight, the body length and the tail length under isoflurane anesthesia on the day after the final day of administration, blood was collected from the abdominal aorta and the animal was caused to die, the right femur was extracted and the femur length was measured.

[4] = dexamethasone 0.67 mg/mL pump alone or with CNP derivative (A) or human-type growth hormone 1 mg/mL, 2 mL/kg s.c. once a day 28 days, n=4 or 5
[5] = dexamethasone 1 mg/mL pump alone or combined with CNP derivative (A) 20 mg/mL pump, continuous s.c. 28 days, 7-week-old male Wistar rat, mean ± SD, n=6
[6] = dexamethasone 1 mg/mL pump alone or combined with CNP derivative (A) 20 mg/mL pump, continuous s.c. 28 days, male Wistar rat, mean ± SD, n=6
[7] = betamethasone 0.3 mg/mL, + medium or + CNP derivative (A) 1 mg/kg
[8] = dexamethasone 0.3 mg/mL, + medium or + CNP derivative (A) 1 mg/kg
[9] = prednisolone 5 mg/mL, + medium or + CNP derivative (A) 1 mg/kg

With `CC[C@H](C)[C@@H]1NC(=O)[C@H](CCCNC(=N)N)NC(=O)[C@H](CC(=O)O)NC(=O)[C@H](CC(C)C)NC(=O)[C@H](CCCCN)NC(=O)[C@H](CC(C)C)NC(=O)CNC(=O)[C@H](Cc2ccccc2)NC(=O)[C@@H](NC(=O)CNC(=O)[C@H](CCCCN)NC(=O)[C@H](CO)NC(=O)[C@H](CC(C)C)NC(=O)CN)CSSC[C@@H](C(=O)N[C@H](C(=O)N[C@@H](CCC(N)=O)C(=O)N[C@@H](CCC(N)=O)C(=O)N[C@@H](CCCNC(=N)N)C(=O)N[C@@H](CCCCN)C(=O)N[C@@H](CC(=O)O)C(=O)N[C@@H](CO)C(=O)N[C@@H](CCCCN)C(=O)N[C@@H](CCCCN)C(=O)N2CCC[C@H]2C(=O)N2CCC[C@H]2C(=O)N[C@@H](C)C(=O)N[C@@H](CCCCN)C(=O)N[C@@H](CC(C)C)C(=O)N[C@@H](CCC(N)=O)C(=O)N2CCC[C@H]2C(=O)N[C@@H](CCCNC(=N)N)C(=O)O)C(C)C)NC(=O)CNC(=O)[C@H](CC(C)C)NC(=O)CNC(=O)[C@H](CO)NC(=O)[C@H](CCSC)NC(=O)[C@H](CO)NC(=O)CNC1=O` [CNP derivative (A), CNP (1-22) Ghrelin (12-28, E17D, SEQ ID NO: 13)] (H-GLSKGCFGLKLDRIGSMSGLGCVQQRKDSKKPPAKLQPR-OH; disulfide 6-22) the “Body weight at dissection” value ([1]; dexamethasone 0.67 mg/mL pump 28 days alone or with CNP derivative (A) or human-type growth hormone 1 mg/mL, 2 mL/kg s.c. once a day 28 days, 4-week-old male Wistar rat, mean ± SD, n=4 or 5) was 250 ± 20 g, the “Body length at dissection” value [1, 4] was 210 ± 5 mm and the “Body length, variation from pre-administration value (Δ value)” value [1, 4] was “(56.3 ± 2.9) mm”. For the same compound, the “Body weight, variation from pre-administration value (Δ value)” value [1, 4] was “(145 ± 15) g”, the “Left femur length at dissection” value [1, 4] was 32.7 ± 0.4 mm and the “Tail length at dissection” value [1, 4] was 209 ± 2 mm. For the same compound, the “Tail length, variation from pre-administration value (Δ value)” value [1, 4] was “(73.5 ± 1.3) mm”, the “growth plate cartilage layer of the epiphyseal region of the left femur (in words)” value ([1]; histology, toluidine blue (FIG. 5), tendency, combinations compared with dexamethasone only) was “swelling” and the “body length, tail length and femur length shortened by dexamethasone (in words)” value ([2]; combined administration of CNP derivative (A) 20 mg/mL with dexamethasone 1 mg/mL, 28 days) was “recovered to the same level as in Group 1”. For the same compound, the “Body length at final day” value [2, 5] was 233 ± 3 ^NS mm, the “Tail length at final day” value [2, 5] was 211 ± 10 ^NS mm and the “Right femur Length” value [2, 6] was 37.9 ± 0.6 ^NS mm. For the same compound, the “Right femur Wide (epiphyseal region, maximum width)” value [2, 6] was 7.8 ± 0.2 ^NS mm, the “Body length, variation from preadministration value (Δ value)” value [3, 7] was “(78 ± 6) mm” and the “Body weight, variation from preadministration value (Δ value)” value [3, 7] was “(224 ± 18) g”. For the same compound, the “Right femur length at dissection” value [3, 7] was 35.6 ± 0.5 mm, the “Tail length at dissection” value [3, 7] was 229 ± 1 mm and the “Tail length, variation from preadministration value (Δ value)” value [3, 7] was “(101 ± 4) mm”. For the same compound, the “Body length, variation from preadministration value (Δ value)” value [3, 8] was “(39 ± 3) mm”, the “Body weight, variation from preadministration value (Δ value)” value [3, 8] was “(81 ± 8) g” and the “Right femur length at dissection” value [3, 8] was 29.6 ± 0.3 mm. The “Tail length at dissection” value [3, 8] was 184 ± 4 mm, the “Tail length, variation from preadministration value (Δ value)” value [3, 8] was “(56 ± 3) mm” and the “Body weight at dissection” value ([3]; dexamethasone 0.3 mg/mL, + medium or + CNP derivative (A) 1 mg/mL, 1 mL/kg s.c. once a day, mean ± SD) was 187 ± 10 g. For the same compound, the “Body length at dissection” value [3, 9] was 221 ± 3 mm, the “Body length, variation from preadministration value (Δ value)” value [3, 9] was “(71 ± 4) mm” and the “Body weight, variation from preadministration value (Δ value)” value [3, 9] was “(208 ± 17) g”. For the same compound, the “Right femur length at dissection” value [3, 9] was 34.2 ± 0.5 mm, the “Tail length at dissection” value [3, 9] was 225 ± 7 mm and the “Tail length, variation from preadministration value (Δ value)” value [3, 9] was “(97 ± 5) mm”. The “Body weight at dissection” value ([3]; prednisolone succinate (5 mg/mL as prednisolone), + medium or + CNP derivative (A) 1 mg/kg) was 315 ± 21 g.
